{"source": "paper PMC9104438", "about": "“Application of a Fluorescence Anisotropy-Based Assay to Quantify Transglutaminase 2 Activity in Cell Lysates” (International Journal of Molecular Sciences, 2022)", "test_system": "DMC", "experiment": "Ultrafiltration to assess noncovalent binding of R-I-Cad to DMC", "data": [{"smiles": "CCN(CC)c1ccc2c(-c3ccccc3C(=O)N3CCC(C(=O)NCCCCCN)CC3)c3ccc(=[N+](CC)CC)cc-3oc2c1", "note": "[R-I-Cad, rhodamine B-isonipecotyl-cadaverine]", "values": [{"measurement": "R-I-Cad in the eluate after ultrafiltration", "setting": "R-I-Cad 8.1 µM, DMC 300 µM, 3 kDa cut-off, RP-HPLC", "result": "not detectable"}, {"measurement": "factor of drop of free R-I-Cad concentration", "setting": "at 300 µM DMC, estimated from FA rate dependence on R-I-Cad", "result": "greater than 300"}]}]}
